Measured values taken from US10159685B2, “Vascular calcification” (Cambridge Enterprise Limited, priority 2016, dated 2018).
At least one structure is not confirmed: it was looked up by name or label, or the drawing left a doubt.

Assays:
[1] = test system: human vascular smooth muscle cells (hVSMCs); test: o-Cresolphthalein Ca2+ assay, hVSMC Ca/P calcification model (Examples 7-9); format: cell-based; details: for Inhibition of calcification, normalised results (FIG. 27): concentrations between 0.05 μM and 3 μM
Method: (§1) Primary hVSMCs were cultured in M199 media containing FBS (M199/5% FBS). They were plated at a known cell density, allowed to grow for 24 hours and then treated with control (DMSO only) or calcification media (DMSO containing 2.7 mM Calcium+2.5 mM phosphate)+/−inhibitors. After 6 days, calcification was assessed using the o-Cresolphthalein assay for quantification of Ca^2+ deposition and a BioRad protein assay for protein content.
Medium+/−inhibitors was exchanged every 2-3 days.
as §1, with “8” for “6”, “using” for “using the”
All of the compounds tested were used at a concentration of 3 μM. Medium+/−inhibitors was exchanged every 2-3 days.
as §1, with “phosphate)+/−compounds.” for “phosphate)+/−inhibitors.”, “8” for “6”, “using” for “using the”
These concentrations were chosen to mimic the systemic concentrations of these drugs following patient dosing according to the dose schedule in the prescribing information for each drug. Medium+/−inhibitors was exchanged every 2-3 days.

[2] = test system: bovine vascular smooth muscle cells (bVSMCs); test: Alizarin Red S staining, bVSMC GAD calcification model (Example 4); format: cell-based; details: GAD-treated bVSMCs, 10 μM, 7 d, versus no inhibitor
Method: (§2) For the bVSMCs a GAD medium (10 mM β-glycerophosphate/0.1 mM L-ascorbic acid-2-phosphate/10 nM dexamethasone) model was used to induce mineralization in bVSMCs. Accordingly, cells were seeded in tissue culture plates using M199/20% FCS culture medium and cultured overnight. The next day, cells were treated either with medium only (M199/5% FBS)+/−inhibitors, or with the GAD-medium (10 mM β-glycerophosphate/0.1 mM L-ascorbic acid-2-phosphate/[…] dexamethasone)+/−inhibitors.
Medium+/−inhibitors was exchanged every 2-3 days. Bovine VSMCs were incubated for 7 d prior to assessment.
The Alizarin Red S staining is a visual/histological stain for tissue calcium deposits. Cells are briefly fixed in 4% paraformaldehyde/PIPES buffer pH 7.2 and subsequently stained for 5 min with Alizarin Red S (2% Alizarin Red S/DIW pH 4.2). Excess stain is removed by washing in DIW. Calcium mineral deposits are stained a bright orange red.

[3] = test system: bovine vascular smooth muscle cells (bVSMCs); test: o-Cresolphthalein Ca2+ assay, bVSMC GAD calcification model (Examples 4 and 5); format: cell-based; details: for Dose dependence of inhibition of calcification (FIGS. 9B, 13 and 16): bVSMC GAD model, 10, 1, 0.1 μM
Method: as §2
Medium+/−inhibitors was exchanged every 2-3 days. […]
The o-Cresolphthalein assay is a spectrophotometric method for measuring Ca^2+-concentrations in cell/tissue lysates. Following the calcification experiments, cells are briefly washed to remove medium and 100 […]1 of 0.1 N HCl is added to each well to dissolve any mineral deposits. Then, the Ca^2+-concentration of the samples is measured spectrophotometrically (at 570 nm) in the o-cresolphthalein assay with the help of a CaCl2 standard curve in a concentration range of ˜0.02-270 µg Ca^2+/ml.
The commercial BioRad DC protein assay is based on the Lowry method, aka reaction of proteins with a copper-tartrate complex and subsequent reaction with Folin's reagent. Following the calcification experiment, cells are briefly washed to remove medium and 100 µl of solubilisation solution (0.1 M NaOH/1% SDS/DIW) is added to each well to lyse the cells. The protein concentrations of the lysates are subsequently determined in the BioRad DC assay as per supplier's instructions using BSA (bovine serum albumin) as standard.
The in vitro model is the same as the model used in example 4; bovine vascular smooth muscle cells (bVSMCs) cultured so that they produce extracellular matrix, with the addition of the GAD medium (10 mM β-glycerophosphate/0.1 mM L-ascorbic acid-2-phosphate/10 nM dexamethasone).
As above, cells were treated either with medium only (“no-additions”; NA)+/−inhibitors, or with the GAD-medium+/−inhibitors. The inhibitors used were PJ34 and minocyclin (MC) at 10 μM, 1 μM and 0.1 μM.
The methodology was the same as that described in example 4.

[4] = test system: PARP produced by a mammalian cell; details: have been shown; cited from earlier work
[5] = hVSMCs, 6 days, PJ34 10 μM, minocycline and cilostazol 0.5, 1 and 2 μM

Structure (SMILES)	Inhibition of calcification, normalised results (FIG. 27) ([1]; hVSMCs, 8 days)	Degree of mineralization judged by eye (Alizarin Red S, FIG. 6) [2]	Calcium levels (mass of calcium, FIG. 7B) compared to no inhibitors ([3]; GAD-treated bVSMCs, 10 μM, 7 d)	Normalised calcium levels (mass of calcium per mass of protein, FIG. 9B) ([3]; GAD-treated bVSMCs, 10 μM, 7 d)	Dose dependence of inhibition of calcification (FIGS. 9B, 13 and 16) [3]	Dose dependence of inhibition of calcification (FIGS. 9B, 13 and 16) ([3]; listed as Minocycline)	Extracellular matrix calcification (summary statement) ([1]; bovine cell and human cell in vitro vascular calcification model)	Dose dependence of reduction of normalised calcium levels (FIG. 19) ([1]; hVSMCs, 6 days, 0.5, 1 and 2 μM)	Calcium levels (mass of calcium, FIG. 17) versus DMSO Ca+P positive control [1, 5]	Normalised calcium levels (mass of calcium per mass of protein, FIG. 19) [1, 5]	Normalised calcium levels (mass of calcium per mass of protein, FIG. 22) ([1]; hVSMCs, 8 days, 3 μM)	Inhibition of PARP produced by a mammalian cell [4]
CCOC(=O)C1=C(COCCN)NC(C)=C(C(=O)OC)C1c1ccccc1Cl (stereo not shown) [amlodipine]	do not inhibit medial vascular calcification											
CN(C)c1ccc(O)c2c1C[C@H]1C[C@H]3[C@H](N(C)C)C(O)=C(C(N)=O)C(=O)[C@@]3(O)C(O)=C1C2=O [minocycline]	inhibit calcification significantly and repeatedly	slightly less	lower calcium levels	significantly lower calcium levels	inhibits calcification in a dose dependent manner	dose-dependent effect on calcification	significantly reduce extracellular matrix calcification	dose dependent manner	reduce the calcium levels	lower calcium levels significantly	particularly effective	inhibit PARP
